Experimental data: patent US20130326728A1, “AGENTS FOR INCREASED RESISTANCE AGAINST OXIDATIVE STRESS CONDITIONS” (KATHOLIEKE UNIVERSITEIT LEUVEN, priority 2010, published 2013)

Tested on: transcriptionally active regions (OSIP-encoding regions)
Assay: Tiling array identification of paraquat-induced OSIP-encoding regions (log2 ratio paraquat vs control)
Set-up: species or system Arabidopsis thaliana
Details: A. thaliana leaves, 48 h after paraquat vs mock

## MGLNEDSVFRSIKPFKSP (listed as Arabidopsis thaliana) [OSIP163]
  log2 ratio upon paraquat treatment in the tiling array: 5.07

## MLCVLQGLRE (listed as Arabidopsis thaliana) [OSIP108]
  log2 ratio upon paraquat treatment in the tiling array: 5.42

## MNVLARAPRLRHQLQNLTQDRRKTQMQMKGQRVRTTSLQ (listed as Arabidopsis thaliana) [OSIP152]
  log2 ratio upon paraquat treatment in the tiling array: 4.74
